Source: paper doi:10.1101/2022.09.30.510343
These are yes or no findings as the source states them, for the method shown. Binding seen in cells or lysates may run through a third protein. Some binding calls cover weakened binding; strength is not graded here. Where a sequence is shown, tags or fusion partners need not be part of it.

Key:
Test in all cases: pull-down
[1] = molecular target: T1, GST-CGA1 (Arabidopsis thaliana) (UniProt Q9SZI6)
T1 sequence: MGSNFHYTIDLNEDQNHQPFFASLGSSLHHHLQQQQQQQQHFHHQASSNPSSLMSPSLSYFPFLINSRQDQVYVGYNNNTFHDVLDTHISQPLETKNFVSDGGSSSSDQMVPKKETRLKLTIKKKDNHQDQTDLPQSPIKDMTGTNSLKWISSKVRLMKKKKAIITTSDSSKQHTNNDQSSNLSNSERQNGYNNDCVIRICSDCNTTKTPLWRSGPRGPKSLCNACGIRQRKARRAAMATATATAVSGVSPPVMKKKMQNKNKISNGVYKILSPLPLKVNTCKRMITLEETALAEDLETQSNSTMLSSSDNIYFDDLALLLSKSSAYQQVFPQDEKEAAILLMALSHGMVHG

[2] = molecular target: T2, GST-GLK1 (Arabidopsis thaliana) (UniProt Q9SIV3)
T2 sequence: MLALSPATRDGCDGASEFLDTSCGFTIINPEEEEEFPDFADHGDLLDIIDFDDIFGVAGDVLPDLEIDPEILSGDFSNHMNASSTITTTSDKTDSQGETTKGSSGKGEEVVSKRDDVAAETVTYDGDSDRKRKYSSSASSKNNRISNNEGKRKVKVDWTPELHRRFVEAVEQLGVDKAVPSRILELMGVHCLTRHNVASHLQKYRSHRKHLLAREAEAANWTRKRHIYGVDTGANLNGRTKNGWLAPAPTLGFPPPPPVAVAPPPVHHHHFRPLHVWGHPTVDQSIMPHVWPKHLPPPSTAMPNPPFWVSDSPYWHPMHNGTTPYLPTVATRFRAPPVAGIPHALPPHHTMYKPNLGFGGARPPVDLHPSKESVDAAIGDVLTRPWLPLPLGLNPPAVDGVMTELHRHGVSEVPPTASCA

[3] = molecular target: T3, GST-GLK2 (Arabidopsis thaliana) (UniProt Q9FFH0)
T3 sequence: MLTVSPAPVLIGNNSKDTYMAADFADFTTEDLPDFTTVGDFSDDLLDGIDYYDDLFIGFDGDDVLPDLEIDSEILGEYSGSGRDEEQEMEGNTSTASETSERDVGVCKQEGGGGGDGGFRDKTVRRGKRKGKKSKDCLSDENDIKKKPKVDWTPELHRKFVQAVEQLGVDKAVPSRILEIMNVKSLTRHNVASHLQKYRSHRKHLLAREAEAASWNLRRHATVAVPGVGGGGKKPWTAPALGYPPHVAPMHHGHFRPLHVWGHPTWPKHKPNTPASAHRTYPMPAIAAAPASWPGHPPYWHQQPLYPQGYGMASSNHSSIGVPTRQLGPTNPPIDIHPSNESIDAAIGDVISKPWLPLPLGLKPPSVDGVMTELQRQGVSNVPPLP

[4] = molecular target: T4, GST-GNC (Arabidopsis thaliana) (UniProt Q5HZ36)
T4 sequence: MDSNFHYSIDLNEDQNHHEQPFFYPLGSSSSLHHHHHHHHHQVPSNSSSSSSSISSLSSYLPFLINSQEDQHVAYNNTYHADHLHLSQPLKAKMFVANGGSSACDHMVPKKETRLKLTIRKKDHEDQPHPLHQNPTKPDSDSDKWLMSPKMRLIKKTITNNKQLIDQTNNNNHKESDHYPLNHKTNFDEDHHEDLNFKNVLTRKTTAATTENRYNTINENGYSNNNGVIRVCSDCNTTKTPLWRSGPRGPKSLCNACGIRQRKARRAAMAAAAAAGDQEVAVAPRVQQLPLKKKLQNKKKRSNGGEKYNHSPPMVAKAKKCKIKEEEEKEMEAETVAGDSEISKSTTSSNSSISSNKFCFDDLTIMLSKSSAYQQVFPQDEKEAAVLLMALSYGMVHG

Measured: binding

B1: nDET1 (26-87 aa) (domain or fragment, UniProt P48732 26-87)
chain: NRARHFYENLVPSYTLYDVESPDHCFRKFTEDGLFLISFSRNHQELIVYRPSWLTYSTTDDS
binds: [1] | [2] | [3] | [4]
